Measured values taken from paper PMC5824887, “A family of unconventional deubiquitinases with modular chain specificity determinants” (Nature Communications, 2018).

Legend:
[1] = biological target: T1, ZUFSP full-length (Homo sapiens) (UniProt Q96AP4); test: EMSA; conditions: 5 µM ZnSO4, partial shift, EMSA: 0.5 µM DNA, 5 µM protein, 10 mM TRIS pH 7.5, 0.2 mM DTT, 5 µM ZnSO4, 1 h at 4 °C, 1.5% agarose gel, recombinant protein, residues 1-578, protein details: 6His-Smt3 tag removed by Senp1
T1 sequence (looked up): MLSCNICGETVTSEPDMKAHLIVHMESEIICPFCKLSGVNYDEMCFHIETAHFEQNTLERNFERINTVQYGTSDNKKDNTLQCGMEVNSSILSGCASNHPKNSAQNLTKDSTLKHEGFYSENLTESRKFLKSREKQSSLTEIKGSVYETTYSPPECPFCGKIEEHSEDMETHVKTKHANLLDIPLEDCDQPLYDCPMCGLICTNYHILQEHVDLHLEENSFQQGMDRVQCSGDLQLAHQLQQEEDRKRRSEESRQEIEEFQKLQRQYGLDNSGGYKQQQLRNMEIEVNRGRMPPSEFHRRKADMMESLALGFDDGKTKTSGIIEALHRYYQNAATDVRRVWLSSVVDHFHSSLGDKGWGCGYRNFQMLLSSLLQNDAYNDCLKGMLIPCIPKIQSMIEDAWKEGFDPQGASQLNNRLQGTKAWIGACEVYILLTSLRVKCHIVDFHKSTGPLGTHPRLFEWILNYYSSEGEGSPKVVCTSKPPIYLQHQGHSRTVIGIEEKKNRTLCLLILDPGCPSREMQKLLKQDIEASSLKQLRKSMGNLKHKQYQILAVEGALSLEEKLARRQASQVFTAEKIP

[2] = biological target: T2, ZUFSP232-578 (Homo sapiens) (UniProt Q96AP4); test: EMSA; conditions: 5 µM ZnSO4, better binder than full-length, EMSA: 0.5 µM DNA, 5 µM protein, 10 mM TRIS pH 7.5, 0.2 mM DTT, 5 µM ZnSO4, 1 h at 4 °C, 1.5% agarose gel, recombinant protein, residues 232-578, protein details: 6His-Smt3 tag removed by Senp1
T2 sequence (looked up): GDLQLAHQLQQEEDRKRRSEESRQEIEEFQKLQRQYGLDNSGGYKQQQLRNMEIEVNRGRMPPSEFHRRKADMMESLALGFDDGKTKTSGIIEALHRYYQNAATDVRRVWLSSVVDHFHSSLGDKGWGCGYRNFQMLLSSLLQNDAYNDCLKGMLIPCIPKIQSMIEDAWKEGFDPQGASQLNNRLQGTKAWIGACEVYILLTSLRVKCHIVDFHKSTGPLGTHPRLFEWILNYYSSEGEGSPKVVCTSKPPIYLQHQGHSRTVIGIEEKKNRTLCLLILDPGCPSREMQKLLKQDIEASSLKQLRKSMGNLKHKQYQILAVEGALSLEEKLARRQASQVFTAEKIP

[3] = label: 5'-6-FAM, single-stranded DNA

Sequence	binding result ([1]; folded or branched DNA)	binding result ([2]; folded or branched DNA)	further results
GGGCTTCTCCCGCCCCCGCCTTTTTTCCGGCGGCGGGGGCGGGAGAAGTAGATTG [OriL+6]	binds more weakly	binds	–
GGGCTTCTCCCGCCTTTTTTCCCGGCGGCGGGAGAAGTAGATTGAAG (double strand) [dsDNA]	–	–	binding result ([1]; label: 5'-6-FAM on strand 1): binds more weakly; binding result ([2]; label: 5'-6-FAM on strand 1): binds
GGGCTTCTCCCGCCTTTTTTCCCGGCGGCGGGAGAAGTAGATTGAAG [OriL]	binds more weakly	binds	–
GGGCTTCTCCCGCCTTTTTTCCCGGCGGCGGGAGAAGTAGATTGAAG [ssDNA]	–	–	binding result [1, 3]: binds more weakly; binding result [2, 3]: binds

For some assays here: Weaker means in comparison with the reference protein, sequence or condition of that experiment. Protein sequences can lack the tags named with them. For at least one entry, the source does not settle the construct or the ends of the probe. At least one verdict was read from the data and is not stated in words by the source.
